Article PMC10163288
This is one part of the list.

B1: il10ra_site1_sap_25_mot_HHH_b1_06128_000000102_0001_1_20_H_._HHH_b1_04347_0001_0000300023_0000001_0_0001 (protein)
chain: SSSTEEVIRKAARVAQEAIRLAIQRSDQETFEQLWELFKRIIREGDPELLEELERLLEELRSSSS
B2: il10ra_site1_normal_mot_42f8b9a235e54c912819b8ab3aebd5a2_0001_af2_000000295_0001_34_48_H_._96acec432cdb841898d80330b1faeb22_0001_0001_0000400016_0000001_0_af2pr … (protein)
chain: DKEEEEIEELLEEGDEEEAKELVIRILSKVLNIPPEEAREYLERLEEKAGNPELALQMALVAVRL
B3: il10ra_site1_normal_mot_HHH_b1_04771_000000013_0001_40_56_H_._HHH_b2_03045_0001_0000300017_0000001_0 (protein)
chain: SSSSSDDELLELSLEAFRLALRGNPEEAEEVLREALKLAEELNNERALRVVRDQLRALGSSSSSS
B4: il10ra_site1_normal_mot_HHH_b1_07878_000000292_0001_1_19_H_._HHH_b2_02497_0001_0000200022_0000001_0 (protein)
chain: SSSSDEAYKIAREAAEEAARLYREGDPEEAQKLLEEALRLLEELGNFSAVFALRQFLRALVSSSS
B5: il10ra_site1_sap_28_mot_HHH_b1_02665_000000293_0001_1_18_H_._HHH_b2_00739_0001_0000400033_0000001_0_0001_af2pred_0001 (protein)
chain: SSSSSEEEIEELLRELRELVEEGDLRRLLELIREVRKLAAELNDPEALEEVLELLRRALRSSSSS
B6: il10ra_site1_normal_mot_HHH_b2_00345_af2_000000013_0001_42_56_H_._HHH_b1_04343_0001_0000600027_0000002_0 (protein)
chain: SSSDEEVIEKASEVAQEAIRLAIRRNDEETFRELWRLFKEIIREGDPELLEELERLLEELRSSSS
B7: il10ra_site1_sap_24_mot_HHH_b2_05343_000000235_0001_19_35_H_._HHH_b1_08750_af2_0001_0000700009_0000001_0_0001 (protein)
chain: SSSSDVQREVYRLSRRIAELIRDGNPEEARRLLEELEELVEEFNNWNARFLLEVLRRALEQSSSS
B8: il10ra_site1_normal_mot_HHH_b2_00984_000000042_0001_1_20_H_._HHH_b1_04652_af2_0001_0000100001_0000002_0 (protein)
chain: SSSSDEEEVEERVEELLEEAKKIEDPEELARVLAEAVRLAFELGDAELLQEIWETIKELTSSSSS
B9: il10ra_site1_sap_20_mot_HHH_b2_05343_000000235_0001_19_35_H_._HHH_b1_07100_af2_0001_0000400018_0000001_0_0001 (protein)
chain: SSSDEEEVEELLIELAQLSARVSPEQQQLLQEALVRAHHLLHEGNPEEAREVLREVLEKVRSSSS
B10: il10ra_site1_normal_mot_HHH_b1_05697_000000276_0001_40_57_H_._HHH_b1_08314_af2_0001_0000100004_0000003_0 (protein)
chain: SSSSNNEEQHIRAILIFAKQTAEEGNPHAARFAVEYAYELAEELGNEELLKEAEELLKELSSSSS
B11: il10ra_site1_sap_4_mot_HHH_b1_07527_000000076_0001_1_15_H_._HHH_b2_00812_0001_0000200014_0000001_0_0001 (protein)
chain: SSSSDEEVLELLREAVRLLLRGNYEEAEKVLREAEQIARELNNERALRMVEDLLKIIESALSSSS
B12: il10ra_site1_sap_15_mot_HHH_b2_03062_af2_000000013_0001_23_38_H_._HHH_b1_01731_0001_0000300027_0000001_0_0001_af2pred_0001 (protein)
chain: SSSSNDRQRVYELLRKALELLRRGDPEEAREVLEEAKEIAEEANSLVFRWSLEFIEKEVNSSSSS
B13: il10ra_site1_normal_mot_HHH_b2_03438_af2_000000049_0001_18_34_H_._HHH_b1_02663_0001_0000500063_0000001_0 (protein)
chain: SSSSDEERRRAYELLRELAEVIHEGDEERAEELIEEIRELLEQVNDVLLLFQLKFLERALNSSSS
B14: il10ra_site1_normal_mot_HHH_b2_00984_000000042_0001_1_20_H_._HHH_b2_02580_af2_0001_0000200011_0000001_0 (protein)
chain: SSSSDEEEEEAEELLERLEELIKRGDREEALRLAQEALRVAFELSNPEILQRIWELIKELSSSSS
B15: il10ra_site1_normal_mot_8756ee2cf497b5429c717dfc0c0bcfd6_0001_000000186_0001_1_13_H_._HHH_b2_06757_af2_0001_0000200007_0000001_0 (protein)
chain: SSSSSSAEVSQELMELIREALKIEDKEEAEEVLREAEELAKENNNDVILAQLKYLLRQLSSSSSS
B16: il10ra_site1_sap_9_mot_HHH_b2_00943_af2_000000149_0001_1_17_H_._HHH_b1_04539_0001_0000200020_0000001_0_0001 (protein)
chain: SSSSSDQEEQHARAILYFAKLVDNPHARKLMLEVALRLARELGDEELEEEIEELLREINSSSSSS
B17: il10ra_site1_sap_16_mot_HHH_b2_01184_af2_000000191_0001_44_57_H_._HHH_b1_01019_0001_0000100001_0000001_0_0001_af2pred_0001 (protein)
chain: SSSSDEEEEELEELLRILRELGDRVAVLSVEYILEIYERTGDEKALKIAIEAAKRIIEELESSSS
B18: il10ra_site1_normal_mot_HHH_b1_05357_000000034_0001_23_39_H_._HHH_b2_02453_0001_0000100002_0000002_0 (protein)
chain: SSSSDVEEELEELLEEAKRIEDRARASHVLIRAYALAHHRNDPELEEFVREESLKIVEEGSSSSS
B19: il10ra_site1_normal_mot_HHH_b1_05098_000000185_0001_1_18_H_._HHH_b1_08425_0001_0000600040_0000001_0 (protein)
chain: SSSSDEEQEELLELSLEAFRLALRGNPEEAEEVVERARKLAEELNDERALRVIRALAEVLSSSSS
B20: il10ra_site1_sap_12_mot_HHH_b1_08281_000000266_0001_42_57_H_._HHH_b2_06600_af2_0002_0000100006_0000002_0_0001 (protein)
chain: SSSNRAAKWLAEQAAQAVELLLRQGDHERAEWAFENLERLLKQVGDPELKEILEEIEELLRSSSS
B21: il10ra_site1_normal_mot_HHH_b1_06914_000000280_0001_1_18_H_._HHH_b1_07761_0001_0000300040_0000001_0 (protein)
chain: SSSSSEEDEELYRLSRRAAELLARGNPEEAEELLEEAERLAERNNNRVLLFTIRFLLRQVTSSSS
B22: il10ra_site1_normal_mot_HHH_b1_02131_000000111_0001_1_18_H_._HHH_b1_04628_af2_0001_0000600030_0000001_0 (protein)
chain: SSSSSDEEELEELLEELEKLVKKNDVQRALEIAIHILRLAFRNSDEEVLQEAHELVLSLRSSSSS
B23: il10ra_site1_normal_mot_HHH_b1_04771_000000013_0001_40_56_H_._HHH_b1_06413_0001_0000200008_0000001_0 (protein)
chain: SSSSDLDERVSRLSQEVFRLALRGNPEEAEKVVEEAIELAEEANNERALRVLRDLEQVLESSSSS
B24: il10ra_site1_sap_17_mot_HHH_b2_00943_af2_000000149_0001_1_17_H_._HHH_b1_03323_0001_0000100004_0000001_0_0001_af2pred_0001 (protein)
chain: SSSSDEEVEREVEELLEEAKKVEDPEEVTYLLIRAFALATRNRDEELRELVEKVAQEVTESSSSS
B25: il10ra_site1_sap_24_mot_HHH_b2_04275_000000272_0001_20_36_H_._HHH_b1_07814_0001_0000100010_0000002_0_0001 (protein)
chain: SSSSSDEEVKEELEELFEEAEKTNDRELLAELAHLAIEYAFRNSDEEVLRLAWELIKRLSSSSSS
B26: il10ra_site1_normal_mot_HHH_b1_02997_000000220_0001_39_52_H_._HHH_b2_07840_0001_0000400035_0000001_0_af2pred_0001 (protein)
chain: SSSSSSDLKELIRELVEAVDEGDEEEAREIYEEAEELARERNDLIALLILEFALKDVESSSSSSS
B27: il10ra_site1_sap_27_mot_HHH_b2_08186_000000021_0001_43_56_H_._HHH_b2_00053_0001_0000300026_0000001_0_0001 (protein)
chain: SSSSSDQEEALELSQRAFHAALRGNPEEAEELLEKAHELAEELNDERLRRMIRDMQKAIKSSSSS
B28: il10ra_site1_sap_24_mot_HHH_b1_01939_000000180_0001_37_52_H_._HHH_b2_01511_0001_0000100011_0000001_0_0001 (protein)
chain: SSSSDEEEEELEELIRELEELLKRGDEEEVSRLAQRALRLAFQLSDPEALHRIWEILRKLSSSSS
B29: il10ra_site1_sap_24_mot_HHH_b1_00103_000000293_0001_1_15_H_._HHH_b2_07203_0001_0000100004_0000002_0_0001_af2pred_0001 (protein)
chain: SSSSSEEVEKLIEEAERALEEGNPEEAKELLFEAALLAARLKDPELAELVARLIAELLRLGSSSS
B30: il10ra_site1_sap_19_mot_HHH_b1_04693_000000238_0001_19_36_H_._HHH_b2_00279_0001_0000200008_0000001_0_0001 (protein)
chain: TRQIEAVLRNARTAGDEEVERIVERVEELIKRGNLEEAEELLRELAERTGNLFLFQLLFIVRALK
B31: il10ra_site1_normal_mot_HHH_b1_03900_000000129_0001_1_16_H_._HHH_b1_03343_af2_0001_0000300011_0000001_0 (protein)
chain: SSSSDDRVYELIRRIARLLIRGNPEEAEELLRELEELAQELNDPELERAVEILEEAIEATSSSSS
B32: il10ra_site1_normal_mot_HHH_b1_06994_000000193_0001_40_55_H_._HHH_b2_03966_0001_0000200017_0000001_0 (protein)
chain: SSSSDEERELIEAALRLARQAYEAGDPRAVRFLLIAAELLAEEINDPELEREIEELEEELSSSSS
B33: il10ra_site1_normal_mot_HHH_b1_00999_000000080_0001_41_55_H_._HHH_b1_01510_0001_0000400038_0000002_0 (protein)
chain: SSSSSSTREEVEELLEELEHLTDPREFLEVILRIIELIFRLKDEELLQELWEIAKRLGSSSSSSS
B34: il10ra_site1_sap_20_mot_HHH_b2_00984_000000042_0001_1_20_H_._HHH_b1_08566_af2_0001_0000200002_0000001_1_0001 (protein)
chain: SSSSDLEEKIEEVERQVREALERGDDEEARKLVEELARLVARRRDPRASYLVIQLYAEVWQSSSS
B35: il10ra_site1_sap_14_mot_HHH_b1_06789_af2_000000041_0001_1_20_H_._HHH_b1_02399_af2_0001_0000100006_0000001_0_0001 (protein)
chain: SSSSDEVSEEVMRLLEKASELAQNGDREEAQRLAEEARELAEEANNPILRLSVEYLLRSINSSSS
B36: il10ra_site1_sap_13_mot_5d0551e3c4357af680d60aaa850e4cea_0001_1_af2_000000133_0001_18_33_H_._HHH_b2_02281_0001_0000100002_0000001_0_0001 (protein)
chain: SSSSDEAVKRVAELIKKANELWREGNPEEVERLLEEAERVAEEAGNQLLLETVEYAARINSSSSS
B37: il10ra_site1_normal_mot_HHH_b2_03220_af2_000000223_0001_23_40_H_._HHH_b2_06988_0001_0000100002_0000002_0_af2pred_0001 (protein)
chain: SSSSSDEQRRAIELIREALEARQRGDPEEARQLLEEAEELAEEGNNPLAERLARLLLEQLSSSSS

The binders below were run against il10ra, Q13651 (assay: yeast display titration).

Apparent Kd, inactive:
B1 no binding seen, B2 no binding seen, B3 no binding seen, B4 no binding seen, B5 no binding seen, B6 no binding seen, B7 no binding seen, B8 no binding seen, B9 no binding seen, B10 no binding seen, B11 no binding seen, B12 no binding seen, B13 no binding seen, B14 no binding seen, B15 no binding seen, B16 no binding seen, B17 no binding seen, B18 no binding seen, B19 no binding seen, B20 no binding seen, B21 no binding seen, B22 no binding seen, B23 no binding seen, B24 no binding seen, B25 no binding seen, B26 no binding seen, B27 no binding seen, B28 no binding seen, B29 no binding seen, B30 no binding seen, B31 no binding seen, B32 no binding seen, B33 no binding seen, B34 no binding seen, B35 no binding seen, B36 no binding seen, B37 no binding seen
